In patent EP3233102B1, “USE OF AN ANTIMICROBIAL PEPTIDE TO INDUCE CELL DEATH IN BREAST CANCER” (Bolkent, Sehnaz, priority 2014, dated 2024):
Read-outs that look alike come from different tables or passages of the source. Not every detail of the peptide structures is certain; ends, links or a residue may be inferred. Where a SMILES comes first, the peptide text is derived from it. Bridges are numbered along the chain shown (N, C = ends).

Legend:
3T3 fibroblast cells [1] = test: MTT assay, cell viability; type: cell-based; details: FIG. 3; for Percentage of viable 3T3 fibroblast cells: 24 hours
[2] = tested on: caspase-3 activity in MDA-MB 231 cells; test: Caspase-3 activity (DEVD-pNA cleavage); type: cell-based; details: for caspase-3 activity, MDA-MB 231: 24 hours, relative to control = 1, FIG. 7
[3] = tested on: caspase-3 activity in MCF-7 cells; test: Caspase-3 activity (DEVD-pNA cleavage); type: cell-based; details: for caspase-3 activity, MCF-7 group: 24 hours, relative to control = 1, FIG. 6
MCF-7 cells [4] = type: cell-based; details: 24 hours; for % Apoptotic cell / % Necrotic cell: MCF-7 cells
MDA-MB 231 cells [5] = test: DNA fragmentation, agarose gel electrophoresis; type: cell-based; details: MDA-MB 231 cells, 50, 100 and 200 µg/ml, 24 hours, FIG. 8
[6] = tested on: MDA-MB 231 breast cancer cells; test: MTT assay, cell viability; type: cell-based; details: 24 hours, FIG. 2
[7] = tested on: E. coli bacteria without outer membrane; details: fluorescent dye, background; cited from earlier work
MDA-MB 231 cells [8] = type: cell-based; details: 24 hours; for % Apoptotic cell / % Necrotic cell: MDA-MB 231 cells
[9] = tested on: caspase-3 activity in control group; test: Caspase-3 activity (DEVD-pNA cleavage), control group; type: cell-based
[10] = tested on: normal (noncancerous) cells; test: MTT assay, cell viability, control group; type: cell-based
MCF-7 cells [11] = test: DNA fragmentation, agarose gel electrophoresis; type: cell-based; details: MCF-7 cells, 50, 100 and 200 µg/ml, 24 hours, FIG. 8
3T3 fibroblast cells [12] = test: Binding to cells, fluorescent microscope; type: cell-based; details: 100 or 200 µg/ml, FIG. 15
[13] = tested on: MCF-7 breast cancer cells; test: MTT assay, cell viability; type: cell-based; details: 24 hours, FIG. 1
MDA-MB 231 cells [14] = test: Binding to cells, fluorescent microscope; type: cell-based; details: 100 µg/ml, p<0.05, FIG. 15

For `CC[C@H](C)[C@@H]1NC(=O)[C@H](CCCNC(=N)N)NC(=O)[C@@H](NC(=O)[C@H](CC(C)C)NC(=O)[C@@H](N)CCCNC(=N)N)CSSC[C@@H](C(=O)N[C@@H](CCCNC(=N)N)C(=O)O)NC(=O)[C@H](C(C)C)NC(=O)[C@H](CCCNC(=N)N)NC(=O)[C@H]([C@@H](C)CC)NC(=O)[C@H](C(C)C)NC(=O)[C@H](C(C)C)NC1=O` [cyclic dodecapeptide, RLCRIVVIRVCR] (H-RLCRIVVIRVCR-OH; disulfide 3-11), the “Percentage of viable 3T3 fibroblast cells” value (3T3 fibroblast cells [1]; 2.5 pg/ml) was 104.2±9.7%, the “Percentage of viable 3T3 fibroblast cells” value (3T3 fibroblast cells [1]; 5 µg/ml) was 105.78±11.1% and the “Percentage of viable 3T3 fibroblast cells” value (3T3 fibroblast cells [1]; 7.5 µg/ml) was 106.8±10.9%. For the same molecule, the “Percentage of viable 3T3 fibroblast cells” value (3T3 fibroblast cells [1]; 10 µg/ml) was 106.3 ± 7.2%, the “Percentage of viable 3T3 fibroblast cells” value (3T3 fibroblast cells [1]; 25 µg/ml) was 107.2±7.6% and the “Percentage of viable 3T3 fibroblast cells” value (3T3 fibroblast cells [1]; 50 µg/ml) was 107.9±6.9%. For the same molecule, the “Percentage of viable 3T3 fibroblast cells” value (3T3 fibroblast cells [1]; 100 µg/ml) was 109.33±5.7%, the “Percentage of viable 3T3 fibroblast cells” value (3T3 fibroblast cells [1]; 200 µg/ml) was 117.55±9.4% and the “cell viability of 3T3 cells relative to control groups” value (3T3 fibroblast cells [1]; 2.5, 5, 7.5 and 10 µg/ml) was “did not change”. For the same molecule, the “cell viability of 3T3 cells relative to control groups” value (3T3 fibroblast cells [1]; 25, 50, 100 and 200 µl /ml) was “increased”, the “caspase-3 activity, MDA-MB 231” value ([2]; 50 µg/ml) was 1.02±0.005 and the “caspase-3 activity, MDA-MB 231” value ([2]; 100 µg/ml) was 0.98 ±0.002. For the same molecule, the “caspase-3 activity, MDA-MB 231” value ([2]; 200µg/ml) was 0.98±0.002, the “DEVD-pNa decomposition (caspase-3), change relative to control groups” value ([2]; MDA-MB 231 cells, 50, 100, 200 µg/ml, p>0,05, FIG. 7) was “did not cause a significant change statistically” and the “caspase-3 activity, MCF-7 group” value ([3]; 50 µg/ml) was 0.88 ± 0.007. For the same molecule, the “caspase-3 activity, MCF-7 group” value ([3]; 100 µg/ml) was 0.84±0.005, the “caspase-3 activity, MCF-7 group” value ([3]; 200 µg/ml) was 0.79±0.004 and the “DEVD-pNa decomposition (caspase-3), change relative to control groups” value ([3]; MCF-7 cells, 50, 100, 200 µg/ml, p>0,05, FIG. 6) was “did not cause a significant change statistically”. The “% Apoptotic cell” value (MCF-7 cells [4]; 50 µg/ml) was 3.98±4.2%, the “% Necrotic cell” value (MCF-7 cells [4]; 50 µg/ml) was 10.14±10.2% and the “% Apoptotic cell” value (MCF-7 cells [4]; 100 µg/ml) was 2.15±2.8%. For the same molecule, the “% Necrotic cell” value (MCF-7 cells [4]; 100 µg/ml) was 95.7±5.2%, the “% Apoptotic cell” value (MCF-7 cells [4]; 200 µg/ml) was 2.78±2.5% and the “% Necrotic cell” value (MCF-7 cells [4]; 200 µg/ml) was 96.09±6.3%. For the same molecule, the necrotic cell death (MCF-7 cells [4]; MCF-7 cells, 50, 100, 200 µg/ml) was “increased the necrotic cell death in a dose-dependent manner”, the DNA fragmentation (MDA-MB 231 cells [5]) was “did not cause DNA fragmentation” and the “Percentage of viable MDA-MB 231 cells” value ([6]; 2.5 µg/ml) was 98.6±5.1%. The “Percentage of viable MDA-MB 231 cells” value ([6]; 5 µg/ml) was 95.51±5.8%, the “Percentage of viable MDA-MB 231 cells” value ([6]; 7.5 µg/ml) was 99.6±6.8% and the “Percentage of viable MDA-MB 231 cells” value ([6]; 10 µg/ml) was 98.62±5.5%. For the same molecule, the “Percentage of viable MDA-MB 231 cells” value ([6]; 25 µg/ml) was 96.66±5.2%, the “Percentage of viable MDA-MB 231 cells” value ([6]; 50 µg/ml) was 42.54±6.3% and the “Percentage of viable MDA-MB 231 cells” value ([6]; 100 µg/ml) was 16.17±8.6%. For the same molecule, the “Percentage of viable MDA-MB 231 cells” value ([6]; 200 µg/ml) was 6.24±2.8%, the inner membrane permeabilization [7] was “permeabilizes the inner membrane” and the “% Apoptotic cell” value (MDA-MB 231 cells [8]; 50 µg/ml) was 0.63±0.5%. For the same molecule, the “% Necrotic cell” value (MDA-MB 231 cells [8]; 50 µg/ml) was 15.66±5.9%, the “% Apoptotic cell” value (MDA-MB 231 cells [8]; 100 µg/ml) was 2.11±0.8% and the “% Necrotic cell” value (MDA-MB 231 cells [8]; 100 µg/ml) was 76.29±13.3%. For the same molecule, the “% Apoptotic cell” value (MDA-MB 231 cells [8]; 200 µg/ml) was 1.41±1.6%, the “% Necrotic cell” value (MDA-MB 231 cells [8]; 200 µg/ml) was 98.51±1.2% and the necrotic cell death (MDA-MB 231 cells [8]; MDA-MB 231 cells, 50, 100, 200 µg/ml) was “increased the necrotic cell death in a dose-dependent manner”. The “caspase-3 activity, control group” value ([9]; 50 µg/ml, FIG. 6 (control group to MCF-7)) was 0.88±0.005, the “caspase-3 activity, control group” value ([9]; 50 µg/ml, FIG. 7 (control group to MDA-MB 231)) was 1.028±0.004 and the “caspase-3 activity, control group” value ([9]; 100 µg/ml, FIG. 6 (control group to MCF-7)) was 0.82±0.004. For the same molecule, the “caspase-3 activity, control group” value ([9]; 100 µg/ml, FIG. 7 (control group to MDA-MB 231)) was 1.05±0.0016, the “caspase-3 activity, control group” value ([9]; 200 µg/ml, FIG. 6 (control group to MCF-7)) was 0.8±0.004 and the “caspase-3 activity, control group” value ([9]; 200 µg/ml, FIG. 7 (control group to MDA-MB 231)) was 0.97±0.003. The “Percentage of viable normal cells” value ([10]; 2.5 pg/ml, FIG. 3 (control group to 3T3)) was 94.74±8.8%, the “Percentage of viable normal cells” value ([10]; 2.5 µg/ml, FIG. 1 (control group to MCF-7)) was 100.27±11.1% and the “Percentage of viable normal cells” value ([10]; 2.5 µg/ml, FIG. 2 (control group to MDA-MB 231)) was 97.73±4.6%. For the same molecule, the “Percentage of viable normal cells” value ([10]; 5 µg/ml, FIG. 1 (control group to MCF-7)) was 92.11±11.9%, the “Percentage of viable normal cells” value ([10]; 5 µg/ml, FIG. 2 (control group to MDA-MB 231)) was 94.6±10.3% and the “Percentage of viable normal cells” value ([10]; 5 µg/ml, FIG. 3 (control group to 3T3)) was 94.21±10.2%. For the same molecule, the “Percentage of viable normal cells” value ([10]; 7.5 µg/ml, FIG. 1 (control group to MCF-7)) was 93.61±10.1%, the “Percentage of viable normal cells” value ([10]; 7.5 µg/ml, FIG. 2 (control group to MDA-MB 231)) was 96.3±7% and the “Percentage of viable normal cells” value ([10]; 7.5 µg/ml, FIG. 3 (control group to 3T3)) was 95.36±8%. The “Percentage of viable normal cells” value ([10]; 10 µg/ml, FIG. 1 (control group to MCF-7)) was 94.67±6.7%, the “Percentage of viable normal cells” value ([10]; 10 µg/ml, FIG. 2 (control group to MDA-MB 231)) was 93.11±5.3% and the “Percentage of viable normal cells” value ([10]; 10 µg/ml, FIG. 3 (control group to 3T3)) was 95.87±10.5%. The “Percentage of viable normal cells” value ([10]; 25 µg/ml, FIG. 1 (control group to MCF-7)) was 86.82±12.5%, the “Percentage of viable normal cells” value ([10]; 25 µg/ml, FIG. 2 (control group to MDA-MB 231)) was 90.22±11% and the “Percentage of viable normal cells” value ([10]; 25 µg/ml, FIG. 3 (control group to 3T3)) was 91.97±11.7%. The “Percentage of viable normal cells” value ([10]; 50 µg/ml, FIG. 1 (control group to MCF-7)) was 96.84±9.5%, the “Percentage of viable normal cells” value ([10]; 50 µg/ml, FIG. 2 (control group to MDA-MB 231)) was 60.2±15.6% and the “Percentage of viable normal cells” value ([10]; 50 µg/ml, FIG. 3 (control group to 3T3)) was 86.6±9.4%. For the same molecule, the “Percentage of viable normal cells” value ([10]; 100 µg/ml, FIG. 1 (control group to MCF-7)) was 85.6±8%, the “Percentage of viable normal cells” value ([10]; 100 µg/ml, FIG. 2 (control group to MDA-MB 231)) was 61.99±12.4% and the “Percentage of viable normal cells” value ([10]; 100 µg/ml, FIG. 3 (control group to 3T3)) was 91.34±11.9%. The “Percentage of viable normal cells” value ([10]; 200 µg/ml, FIG. 1 (control group to MCF-7)) was 83.6±11.7%, the “Percentage of viable normal cells” value ([10]; 200 µg/ml, FIG. 2 (control group to MDA-MB 231)) was 61.71±12.2% and the “Percentage of viable normal cells” value ([10]; 200 µg/ml, FIG. 3 (control group to 3T3)) was 71.78±13.1%. The DNA fragmentation (MCF-7 cells [11]) was “did not cause DNA fragmentation”, the “interaction with 3T3 fibroblast cells” value (3T3 fibroblast cells [12]) was “only interact weakly” and the “Percentage of viable MCF-7 cells” value ([13]; 2.5 µg/ml) was 98.2±7.6%. The “Percentage of viable MCF-7 cells” value ([13]; 5 µg/ml) was 90.84+12%, the “Percentage of viable MCF-7 cells” value ([13]; 7.5 µg/ml) was 90.31 ± 14.2% and the “Percentage of viable MCF-7 cells” value ([13]; 10 µg/ml) was 94.2 ± 8.2%. For the same molecule, the “Percentage of viable MCF-7 cells” value ([13]; 25 µg/ml) was 92.98±8.7%, the “Percentage of viable MCF-7 cells” value ([13]; 50 µg/ml) was 96.37±13% and the “Percentage of viable MCF-7 cells” value ([13]; 100 µg/ml) was 28.76±12.2%. For the same molecule, the “Percentage of viable MCF-7 cells” value ([13]; 200 µg/ml) was 4.75±1% and the “interaction with MDA-MB 231 cells compared with MCF-7 cells” value (MDA-MB 231 cells [14]) was “stronger interaction with MDA-MB 231 cells than with MCF-7 cells”.
